At least one structure is not confirmed: it was looked up by name or label, or the drawing left a doubt.
Tested on: U87
Assay: Mouse model xenografted with brain tumor glioblastoma U87
Format: in vivo, mice
Conditions: Example 2 study: Example 2 50 mg/kg 5 times per week, TMZ 5 mg/kg 2 times per week
Procedure: To confirm the therapeutic effect on brain tumor glioblastoma, U87 (5×10^4), a human brain tumor cell line, was xenografted into the brains of mice to establish a brain tumor model, followed by oral administration of the drugs.
Different experimental groups were evaluated for each compound.
First, with respect to the compound of Example 1, the experimental groups were divided into Vehicle (n=3) and the compound of Example 1, 50 mg/kg (n=3) and the administered with the drug orally 5 times a week 20 days after U87 xenografting.
With respect to the compound of Example 2, the experimental groups were divided into Vehicle (n=9), TMZ 5 mg/kg (Temozolomide, n=10, 2 times per week), the compound of Example 2, 50 mg/kg (n=8, 5 times per week), and combination (TMZ+the compound of Example 2, n=7), and began receiving the drug 20 days after U87 xenografting.

In the case of `Cn1nnc2c(C(N)=O)ncn2c1=O` [TMZ, Temozolomide, reference compound], the “tumor growth rate (MRI)” value is reported as “inhibited the tumor growth rate”.
